PubChem BioAssay AID1259254 – NCATS | 2017

Purpose: 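Gene knock-downs that lead to re-replication, shown by excess G2 DNA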 (primary screen)
System: human HCT116 colorectal cancer cells
Reagent: single siRNA against human genes
Time to read-out: 3 days
Read-out: 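Nuclei stained with Hoechst and imaged; cell-cycle phase assigned by DNA content; G2 share scaled per plate, non-targeting siRNA 0%, GMNN siRNA 100%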
Scale: G2 robust z-score: higher = more G2 cells, more excess DNA replication
Rule for the call: 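Active siRNAs have a G2 robust z of 5 or more median absolute deviations over the median, which in these data means about 38% or higher of GMNN control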
Shown is a random part of about 59,000 deposited reagents. About 1,550 of them (2.6%) were called active. 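G2 share is only a proxy for re-replication; each gene was hit by three separate siRNAs, and active genes were retested.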 Reagents against one gene are numbered here. Further read-outs or replicates are left out here. Not stated in the record: the amount of reagent.

Gene | siRNA no. | G2 robust z-score | call
PSME1 | 1 | 0.572 | inactive
PSME1 | 2 | -0.282 | inactive
PSME1 | 3 | 0.256 | inactive
SNAPC3 | 1 | 0.303 | inactive
SNAPC3 | 2 | -0.41 | inactive
SNAPC3 | 3 | -0.161 | inactive
MLH1 | 1 | 5.13 | active
MLH1 | 2 | 4.03 | inactive
MLH1 | 3 | 0.514 | inactive
MYO5C | 1 | 0.302 | inactive
MYO5C | 2 | -1.3 | inactive
MYO5C | 3 | 0.146 | inactive
SETBP1 | 1 | 0.0587 | inactive
SETBP1 | 2 | 3.95 | inactive
SETBP1 | 3 | -0.872 | inactive
CASKIN2 | 1 | -0.681 | inactive
CASKIN2 | 2 | 0.558 | inactive
CASKIN2 | 3 | -0.385 | inactive
RAD51B | 1 | -0.104 | inactive
RAD51B | 2 | -0.668 | inactive
RAD51B | 3 | 2.73 | inactive
FBXO32 | 1 | 4.13 | inactive
FBXO32 | 2 | -0.366 | inactive
FBXO32 | 3 | 0.474 | inactive
COL6A4P2 | 1 | -0.461 | inactive
COL6A4P2 | 2 | -0.462 | inactive
COL6A4P2 | 3 | 0.992 | inactive
ARIH2 | 1 | -0.45 | inactive
ARIH2 | 2 | -0.264 | inactive
ARIH2 | 3 | 0.871 | inactive
ALDOB | 1 | 4.91 | inactive
ALDOB | 2 | 7.66 | active
ALDOB | 3 | -0.758 | inactive
TMEM207 | 1 | -1.07 | inactive
TMEM207 | 2 | -0.843 | inactive
TMEM207 | 3 | -0.409 | inactive

The list goes on; the last 8 above are carried over.
Gene | siRNA no. | G2 robust z-score | call
ARIH2 | 2 | -0.264 | inactive
ARIH2 | 3 | 0.871 | inactive
ALDOB | 1 | 4.91 | inactive
ALDOB | 2 | 7.66 | active
ALDOB | 3 | -0.758 | inactive
TMEM207 | 1 | -1.07 | inactive
TMEM207 | 2 | -0.843 | inactive
TMEM207 | 3 | -0.409 | inactive
RNF220 | 1 | -0.825 | inactive
RNF220 | 2 | 0.296 | inactive
RNF220 | 3 | 2.35 | inactive
ADARB2-AS1 | 1 | 4.21 | inactive
ADARB2-AS1 | 2 | 2.86 | inactive
ADARB2-AS1 | 3 | -0.311 | inactive
NR1D1 | 1 | 0.0228 | inactive
NR1D1 | 2 | -0.328 | inactive
NR1D1 | 3 | -0.011 | inactive
PTCHD4 | 1 | -0.36 | inactive
PTCHD4 | 2 | 0.407 | inactive
PTCHD4 | 3 | -0.484 | inactive
DNAJB4 | 1 | -0.182 | inactive
DNAJB4 | 2 | 0.458 | inactive
DNAJB4 | 3 | 1.86 | inactive
TSPEAR | 1 | 1.85 | inactive
TSPEAR | 2 | 1.55 | inactive
TSPEAR | 3 | -0.479 | inactive
FAM13B | 1 | -0.387 | inactive
FAM13B | 2 | -0.0708 | inactive
FAM13B | 3 | 3.01 | inactive
PHF21B | 1 | -0.286 | inactive
PHF21B | 2 | -0.239 | inactive
PHF21B | 3 | -0.0455 | inactive
UBE2Q2 | 1 | 0.252 | inactive
UBE2Q2 | 2 | 0.205 | inactive
UBE2Q2 | 3 | -0.0334 | inactive
ADA | 1 | 0.763 | inactive
ADA | 2 | -0.737 | inactive
ADA | 3 | -1.17 | inactive
TM6SF2 | 1 | 0.206 | inactive
TM6SF2 | 2 | 0.0989 | inactive
TM6SF2 | 3 | -0.936 | inactive
